The supplement of paper PMC8728848
Some of the results follow.

Legend:
Experiment in all cases: glycan array binding signal (z-score within array); higher = stronger binding
Conditions in all cases: glycan notation: IUPAC condensed, linker removed
[1] = biological target: Fuc(a1-3)[Gal3S(b1-4)]GlcNAc
Procedure, shortened: (§1)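 The binding signal is a Z-score computed within each array and averaged over linkers. Arrays of the same protein sequence at different concentrations or buffers were also averaged together. Data originate from 3228 arrays in the Consortium for Functional Glycomics database, kept only where the protein sequence was available.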

[2] = biological target: Fuc(a1-3)[Gal3S(b1-4)]GlcNAc6S
Procedure, shortened: as §1

[3] = biological target: Fuc(a1-3)[GalNAc(b1-4)]GlcNAc
Procedure, shortened: as §1

[4] = biological target: Fuc(a1-3)[GalNAc(b1-4)]GlcNAc6S
Procedure, shortened: as §1

Fuc(a1-4)GlcNAc = biological target: Fuc(a1-4)GlcNAc
Procedure, shortened: as §1

Fuc(b1-3)GlcNAc = biological target: Fuc(b1-3)GlcNAc
Procedure, shortened: as §1

Gal(a1-2)Gal = biological target: Gal(a1-2)Gal
Procedure, shortened: as §1

Gal(a1-3)Gal = biological target: Gal(a1-3)Gal
Procedure, shortened: as §1

Gal(a1-3)Gal(b1-3)GlcNAc = biological target: Gal(a1-3)Gal(b1-3)GlcNAc
Procedure, shortened: as §1

[5] = biological target: Gal(a1-3)Gal(b1-3)GlcNAc(b1-2)Man
Procedure, shortened: as §1

[6] = biological target: Gal(a1-3)Gal(b1-3)GlcNAc(b1-2)Man(a1-3)[Gal(a1-3)Gal(b1-3)GlcNAc(b1-2)Man(a1-6)]Man(b1-4)GlcNAc(b1-4)GlcNAc
Procedure, shortened: as §1

[7] = biological target: Gal(a1-3)Gal(b1-3)GlcNAc(b1-3)GalNAc
Procedure, shortened: as §1

[8] = biological target: Gal(a1-3)Gal(b1-3)GlcNAc(b1-6)GalNAc
Procedure, shortened: as §1

[9] = biological target: Gal(a1-3)Gal(b1-3)[Fuc(a1-4)]GlcNAc(b1-2)Man(a1-3)[Gal(a1-3)Gal(b1-3)[Fuc(a1-4)]GlcNAc(b1-2)Man(a1-6)]Man(b1-4)GlcNAc(b1-4)GlcNAc
Procedure, shortened: as §1

Gal(a1-3)Gal(b1-4)Glc = biological target: Gal(a1-3)Gal(b1-4)Glc
Procedure, shortened: as §1

Gal(a1-3)Gal(b1-4)GlcNAc = biological target: Gal(a1-3)Gal(b1-4)GlcNAc
Procedure, shortened: as §1

[10] = biological target: Gal(a1-3)Gal(b1-4)GlcNAc(b1-2)Man
Procedure, shortened: as §1

[11] = biological target: Gal(a1-3)Gal(b1-4)GlcNAc(b1-2)Man(a1-3)[Gal(a1-3)Gal(b1-4)GlcNAc(b1-2)Man(a1-6)]Man(b1-4)GlcNAc(b1-4)GlcNAc
Procedure, shortened: as §1

[12] = biological target: Gal(a1-3)Gal(b1-4)GlcNAc(b1-3)GalNAc
Procedure, shortened: as §1

[13] = biological target: Gal(a1-3)Gal(b1-4)GlcNAc(b1-6)GalNAc
Procedure, shortened: as §1

[14] = biological target: Gal(a1-3)Gal(b1-4)[Fuc(a1-3)]GlcNAc
Procedure, shortened: as §1

[15] = biological target: Gal(a1-3)Gal(b1-4)[Fuc(a1-3)]GlcNAc(b1-2)Man(a1-3)[Gal(a1-3)Gal(b1-4)[Fuc(a1-3)]GlcNAc(b1-2)Man(a1-6)]Man(b1-4)GlcNAc(b1-4)GlcNAc
Procedure, shortened: as §1

Gal(a1-3)GalNAc = biological target: Gal(a1-3)GalNAc
Procedure, shortened: as §1

[16] = biological target: Gal(a1-3)[Gal(a1-4)]Gal(b1-4)GlcNAc
Procedure, shortened: as §1

[17] = biological target: Gal(a1-4)Gal(b1-3)GlcNAc(b1-2)Man(a1-3)[Gal(a1-4)Gal(b1-3)GlcNAc(b1-2)Man(a1-6)]Man(b1-4)GlcNAc(b1-4)GlcNAc
Procedure, shortened: as §1

Gal(a1-4)Gal(b1-4)Glc = biological target: Gal(a1-4)Gal(b1-4)Glc
Procedure, shortened: as §1

Gal(a1-4)Gal(b1-4)GlcNAc = biological target: Gal(a1-4)Gal(b1-4)GlcNAc
Procedure, shortened: as §1

[18] = biological target: Gal(a1-4)Gal(b1-4)GlcNAc(b1-2)Man(a1-3)[Gal(a1-4)Gal(b1-4)GlcNAc(b1-2)Man(a1-6)]Man(b1-4)GlcNAc(b1-4)GlcNAc
Procedure, shortened: as §1

[19] = biological target: Gal(a1-4)Gal(b1-4)GlcNAc(b1-3)Gal(b1-4)Glc
Procedure, shortened: as §1

Gal(a1-4)GlcNAc = biological target: Gal(a1-4)GlcNAc
Procedure, shortened: as §1

Gal(a1-6)Glc = biological target: Gal(a1-6)Glc
Procedure, shortened: as §1

Gal(b1-2)Gal = biological target: Gal(b1-2)Gal
Procedure, shortened: as §1

Gal(b1-3)Gal = biological target: Gal(b1-3)Gal
Procedure, shortened: as §1

Gal(b1-3)Gal(b1-4)GlcNAc = biological target: Gal(b1-3)Gal(b1-4)GlcNAc
Procedure, shortened: as §1

[20] = biological target: Gal(b1-3)Gal(b1-4)GlcNAc(b1-2)Man(a1-3)[Gal(b1-3)Gal(b1-4)GlcNAc(b1-2)Man(a1-6)]Man(b1-4)GlcNAc(b1-4)GlcNAc
Procedure, shortened: as §1

Gal(b1-3)GalNAc = biological target: Gal(b1-3)GalNAc
Procedure, shortened: as §1

[21] = biological target: Gal(b1-3)GalNAc(a1-3)[Fuc(a1-2)]Gal(b1-4)Glc
Procedure, shortened: as §1

[22] = biological target: Gal(b1-3)GalNAc(a1-3)[Fuc(a1-2)]Gal(b1-4)GlcNAc
Procedure, shortened: as §1

B1: CRT-1 (Homo sapiens), P27797 (protein)
chain: MLLSVPLLLGLLGLAVAEPAVYFKEQFLDGDGWTSRWIESKHKSDFGKFVLSSGKFYGDEEKDKGLQTSQDARFYALSASFEPFSNKGQTLVVQFTVKHEQNIDCGGGYVKLFPNSLDQTDMHGDSEYNIMFGPDICGPGTKKVHVIFNYKGKNVLINKDIRCKDDEFTHLYTLIVRPDNTYEVKIDNSQVESGSLEDDWDFLPPKKIKDPDASKPEDWDERAKIDDPTDSKPEDWDKPEHIPDPDAKKPEDWDEEMDGEWEPPVIQNPEYKGEWKPRQIDNPDYKGTWIHPEIDNPEYSPDPSIYAYDNFGVLGLDLWQVKSGTIFDNFLITNDEAYAEEFGNETWGVTKAAEKQMKDKQDEEQRLKEEEEDKKRKEEEEAEDKEDDEDKDEDEEDEEDKEEDEEEDVPGQAKDEL
glycan array binding signal (z-score) [1]: 0.572
glycan array binding signal (z-score) [2]: 0.146
glycan array binding signal (z-score) [3]: 0.552
glycan array binding signal (z-score) [4]: 0.175
glycan array binding signal (z-score) (Fuc(a1-4)GlcNAc): -0.026
glycan array binding signal (z-score) (Fuc(b1-3)GlcNAc): -0.187
glycan array binding signal (z-score) (Gal(a1-2)Gal): -0.019
glycan array binding signal (z-score) (Gal(a1-3)Gal): 0.158
glycan array binding signal (z-score) (Gal(a1-3)Gal(b1-3)GlcNAc): -0.43
glycan array binding signal (z-score) [5]: -0.424
glycan array binding signal (z-score) [6]: 0.598
glycan array binding signal (z-score) [7]: 0.287
glycan array binding signal (z-score) [8]: -0.381
glycan array binding signal (z-score) [9]: 0.078
glycan array binding signal (z-score) (Gal(a1-3)Gal(b1-4)Glc): -0.044
glycan array binding signal (z-score) (Gal(a1-3)Gal(b1-4)GlcNAc): 0.249
glycan array binding signal (z-score) [10]: -0.279
glycan array binding signal (z-score) [11]: 0.027
glycan array binding signal (z-score) [12]: -0.587
glycan array binding signal (z-score) [13]: -0.547
glycan array binding signal (z-score) [14]: 0.806
glycan array binding signal (z-score) [15]: 0.15
glycan array binding signal (z-score) (Gal(a1-3)GalNAc): -0.364
glycan array binding signal (z-score) [16]: 0.255
glycan array binding signal (z-score) [17]: 0.639
glycan array binding signal (z-score) (Gal(a1-4)Gal(b1-4)Glc): -0.079
glycan array binding signal (z-score) (Gal(a1-4)Gal(b1-4)GlcNAc): 0.302
glycan array binding signal (z-score) [18]: -0.021
glycan array binding signal (z-score) [19]: 0.412
glycan array binding signal (z-score) (Gal(a1-4)GlcNAc): -0.007
glycan array binding signal (z-score) (Gal(a1-6)Glc): -0.077
glycan array binding signal (z-score) (Gal(b1-2)Gal): -0.064
glycan array binding signal (z-score) (Gal(b1-3)Gal): 0.051
glycan array binding signal (z-score) (Gal(b1-3)Gal(b1-4)GlcNAc): 1.47
glycan array binding signal (z-score) [20]: 0.485
glycan array binding signal (z-score) (Gal(b1-3)GalNAc): -0.124
glycan array binding signal (z-score) [21]: 0.282
glycan array binding signal (z-score) [22]: -0.212
